Measured values taken from article PMC8472790, “Dual Emissive Ir(III) Complexes for Photodynamic Therapy and Bioimaging” (Pharmaceutics, 2021).

Tested on: A549 cells
Test: Fluorescence confocal microscopy colocalization with MitoTracker Red
Assay type: cell-based, Human
Conditions: 2 µM complex, MTR 15 nM

[Cl-].c1ccc(N(c2ccccn2)c2c3ccccc3cc3ccccc23)nc1.c1cnc2c(c1)ccc1ccc[c]([Ir+][c]3cccc4ccc5cccnc5c34)c12 [Complex 3]
Subcellular localization (colocalization with MTR): fully colocalizes with the signal emitted by MTR
